Source: PubChem BioAssay AID1508597 (Cure First, 2020)
Shown is a random part of the about 2,100 reagents, under one of the conditions tested. 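Calls flag viability under 80% in either arm, not effects specific to rucaparib; the reference for percent is not stated.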 Unmarked entries are inactive. The record does not give: the 100% reference.

Assay: 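Knock-downs altering ovarian cancer cell survival with or without PARP inhibitor rucaparib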 (primary screen)
Cells: human ovarian carcinoma lines grown from tumours: OCI-P5x (papillary serous) and OCI-C5x (clear cell)
Reagent: siRNA pool against human genes, 1.25 pmol siRNA per well
Duration: 72 h or 96 h, depending on the cell culture
Conditions: rucaparib 20 µM (about IC30) or vehicle, present until read-out
Rucaparib or vehicle: Rucaparib
Cell line: OCI-C5x (clear cell)
Read-out: 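ATP luminescence measured at 72 or 96 h according to the culture, then normalised and expressed as percent viability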
Direction: viability, normalised: higher = more viable cells remaining
Call rule: 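a well counts as a hit if its normalised viability is under 80 percent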
Meaning of the calls: active = viability under 80%; inactive = viability 80% or more

How did the screen score RNF40 (GeneID 9810) [SID405527255], technical replicate 1?
viability, normalised (%): 38.6 (active)

With RNF40 (GeneID 9810) [SID405527255], technical replicate 2, how do the results read?
viability, normalised (%): 38.9 (active)

What is on record for RNF40 (GeneID 9810) [SID405527255], technical replicate 3?
viability, normalised (%): 31.6 (active)

With NKX2-3 (GeneID 159296) [SID405527074], technical replicate 1, how do the results read?
viability, normalised (%): 37.7 (active)

For NKX2-3 (GeneID 159296) [SID405527074], technical replicate 2, what does the deposit list?
viability, normalised (%): 50.5 (active)

With NKX2-3 (GeneID 159296) [SID405527074], technical replicate 3, what was measured?
viability, normalised (%): 37 (active)

What is on record for BCORL1 (GeneID 63035) [SID405528028], technical replicate 1?
viability, normalised (%): 63 (active)

What is on record for BCORL1 (GeneID 63035) [SID405528028], technical replicate 2?
viability, normalised (%): 33.9 (active)

With BCORL1 (GeneID 63035) [SID405528028], technical replicate 3, what was measured?
viability, normalised (%): 42.2 (active)

For PTK2 (GeneID 5747) [SID405527632], technical replicate 1, what was measured?
viability, normalised (%): 90.6

For PTK2 (GeneID 5747) [SID405527632], technical replicate 2, what was measured?
viability, normalised (%): 101

For PTK2 (GeneID 5747) [SID405527632], technical replicate 3, what was measured?
viability, normalised (%): 86.5

What did the screen give for CHMP2B (GeneID 25978) [SID405528114], technical replicate 1?
viability, normalised (%): 52.1 (active)

How did the screen score CHMP2B (GeneID 25978) [SID405528114], technical replicate 2?
viability, normalised (%): 44.2 (active)

Which result is listed for CHMP2B (GeneID 25978) [SID405528114], technical replicate 3?
viability, normalised (%): 40.7 (active)

With MED7 (GeneID 9443) [SID405526982], technical replicate 1, what was measured?
viability, normalised (%): 50.5 (active)

With MED7 (GeneID 9443) [SID405526982], technical replicate 2, what was measured?
viability, normalised (%): 38.9 (active)

What is on record for MED7 (GeneID 9443) [SID405526982], technical replicate 3?
viability, normalised (%): 36.9 (active)

What is on record for PSKH1 (GeneID 5681) [SID405527844], technical replicate 1?
viability, normalised (%): 63.5 (active)

For PSKH1 (GeneID 5681) [SID405527844], technical replicate 2, what does the deposit list?
viability, normalised (%): 45.9 (active)

What did the screen give for PSKH1 (GeneID 5681) [SID405527844], technical replicate 3?
viability, normalised (%): 43.2 (active)

2 of these entries, reformatted:
gene | PubChem SID | technical replicate | viability, normalised (%)
BCORL1 (GeneID 63035) | SID405528028 | 1 | 63 (active)
BCORL1 (GeneID 63035) | SID405528028 | 2 | 33.9 (active)
